Source: article PMC10514286
These are yes or no findings as the source states them, for the method shown. Binding seen in cells or lysates may run through a third protein. Some binding calls cover weakened binding; strength is not graded here.

Molecular target: T1, caveolin-1 (mouse (endogenous in MLECs)) (UniProt P49817)
T1 sequence: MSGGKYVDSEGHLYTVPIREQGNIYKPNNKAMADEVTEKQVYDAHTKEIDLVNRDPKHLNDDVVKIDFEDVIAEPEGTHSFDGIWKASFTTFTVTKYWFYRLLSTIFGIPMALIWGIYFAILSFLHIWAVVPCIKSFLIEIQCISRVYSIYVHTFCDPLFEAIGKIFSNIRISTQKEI
Assay: co-IP; eNOS immunoprecipitated with anti-caveolin-1 antibody from MLEC lysate (Pierce IP Lysis Buffer, Protein A&G magnetic beads, 4 °C), Western blot; MLECs from CTR and dKO mice, from vehicle- or MITA-treated mice, with Ad-LacZ or CA-AMPK, with vehicle or captopril

binding: binds
B1: endothelial nitric oxide synthase (enzyme, UniProt P70313 1-1202)
chain: MGNLKSVGQEPGPPCGLGLGLGLGLCGKQGPASPAPEPSQAPAPPSPTRPAPDHSPPLTRPPDGPRFPRVKNWEVGSITYDTLSAQAQQDGPCTSRRCLGSLVFPRKLQSRPTQGPSPTEQLLGQARDFINQYYNSIKRSGSQAHEQRLQEVEAEVAATGTYQLRESELVFGAKQAWRNAPRCVGRIQWGKLQVFDARDCRTAQEMFTYICNHIKYATNRGNLRSAITVFPQRCPGRGDFRIWNSQLIRYAGYRQQDGSVRGDPANVEITELCIQHGWTPGNGRFDVLPLLLQAPDEPPELFTLPPEMVLEVPLEHPTLEWFAALGLRWYALPAVSNMLLEIGGLEFPAAPFSGWYMSSEIGMRDLCDPHRYNILEDVAVCMDLDTRTTSSLWKDKAAVEINVAVLHSYQLAKVTIVDHHAATASFMKHLENEQKARGGCPADWAWIVPPISGSLTPVFHQEMVNYFLSPAFRYQPDPWKGSAAKGAGITRKKTFKEVANAVKISASLMGTVMAKRVKATILYGSETGRAQSYAQQLGRLFRKAFDPRVLCMDEYDVVSLEHEALVLVVTSTFGNGDPPENGESFAAALMEMSGPYNSSPRPEQHKSYKIRFNSVSCSDPLVSSWRRKRKESSNTDSAGALGTLRFCVFGLGSRAYPHFCAFARAVDTRLEELGGERLLQLGQGDELCGQEEAFRGWAQAAFQAACETFCVGEDAKAAARDIFSPKRSWKRQRYRLSTQAESLQLLPGLTHVHRRKMFQATILSVENLQSSKSTRATILVRLDTGGQEGLQYQPGDHIGVCPPNRPGLVEALLSRVEDPPPSTEPVAVEQLEKGSPGGPPPGWVRDPRLPPCTLRQALTYFLDITSPPSPRLLRLLSTLAEESSEQQELEALSQDPRRYEEWKWFSCPTLLEVLEQFPSVALPAPLILTQLPLLQPRYYSVSSAPSAHPGEIHLTIAVLAYRTQDGLGPLHYGVCSTWMSQLKAGDPVPCFIRGAPSFRLPPDPNLPCILVGPGTGIAPFRGFWQDRLHDIEIKGLQPAPMTLVFGCRCSQLDHLYRDEVLDAQQRGVFGQVLTAFSRDPGSPKTYVQDLLRTELAAEVHRVLCLEQGHMFVCGDVTMATSVLQTVQRILATEGGMELDEAGDVIGVLRDQQRYHEDIFGLTLRTQEVTSRIRTQSFSLQERQLRGAVPWSFDPPGPEIPGS
